According to PubChem BioAssay AID504467 (National Center for Advancing Translational Sciences (NCATS), 2011):
The whole screen tested about 330,000 compounds, of which about 7,700 (2.3%) were called active. The inconclusive results got no clear call from the source; some entries with a clear call stand among them for comparison. Calls come from the whole dose curve; as a rule, active = well fitted inhibition curve with a large enough effect; inconclusive = small, poorly fitted or top-dose-only effect, or effect the other way; inactive = flat fitted curve, though single readings scatter. Potencies beside an inconclusive call are fits to weak or partial responses and may not hold up.

test: qHTS screen for small molecules that inhibit ELG1-dependent DNA repair in human embryonic kidney (HEK293T) cells expressing luciferase-tagged ELG1; conditions: HEK293T ELG1-luciferase reporter, luminescence, 16 h, DNA damage induced by 5-fluorouridine; series mostly up to 46.1 µM; note: nearly all actives have a fitted effect of over 55% in size
In short: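 Luminescence from the luciferase reporter, measured 30 min after ONE-Glo reagent at room temperature, was the read-out. Beforehand, 2,000 cells per well were exposed for 16 hr at 37 °C to 5-fluorouridine together with compound or vehicle.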
Potency is the fitted concentration of half-maximal effect.

Structure (SMILES)	Potency
COc1ccc(-c2coc3cc(OC)cc(O)c3c2=O)cc1	inconclusive: 8.91 µM [activator, partial curve]
CC(=O)Nc1ccc(S(=O)(=O)N2CCN(c3ccc([N+](=O)[O-])cc3)CC2)cc1	inconclusive: 25.9 µM [inhibitor, single point]
Cc1ccc[n+](CC(=O)c2ccc(NC(=O)c3ccccc3)cc2)c1	inactive
CC(C)CCNC(=O)c1ccc(Cl)c(N)c1	inconclusive: 20.6 µM [activator, partial curve]
Cc1ccc(-n2c(=S)[nH]c3c(oc4ccccc43)c2=O)cc1C	inconclusive: 13 µM [activator, partial curve]
Cc1ccc2c(COC(=O)c3ccccc3Cl)cc(=O)oc2c1	inconclusive: 18.3 µM [activator, partial curve]
Cc1cc(C)c(C)c(S(=O)(=O)N2CCN(C(=O)c3cc(S(=O)(=O)N4CCOCC4)ccc3F)CC2)c1C	inactive
O=C(Cn1nc([N+](=O)[O-])nc1Br)NC(c1ccccc1)c1ccccc1	inactive
COC(=O)c1ccc(OCc2cc(=O)n3ccsc3n2)cc1	inconclusive: 18.4 µM [activator, partial curve]
O=C(O)c1ccc(Oc2ccc(C(F)(F)F)cn2)cc1	inconclusive: 23.1 µM [activator, partial curve, poor fit]
CC(NC(=O)c1ccco1)C(=O)N1CCN(C(c2ccccc2)c2ccccc2)CC1 (centres undefined)	inconclusive: 14.6 µM [inhibitor, partial curve, poor fit]
O=C(CCN1C(=O)/C(=C/c2ccc(F)cc2)SC1=S)Nc1cccnc1	inactive
Cc1cc(C(=O)CSc2ccc(Cl)cc2)cc(C)c1OC(=S)N(C)C	inconclusive: 2.59 µM [activator, full curve]
O=C(N/N=C/c1ccccc1OC(F)F)c1cc(-c2ccncc2)nc2ccccc12	inconclusive: 6.51 µM [inhibitor, partial curve]
NNc1nc2ccccc2c(=O)n1Cc1ccccc1	inconclusive: 23.1 µM [activator, single point]
COc1ccc(CN2CCNC(=O)C2CC(=O)NC2CCCC2)c(OC)c1 (centres undefined)	inconclusive: 29.1 µM [activator, single point]
CCc1nc(SCc2nc3ccccc3[nH]2)c2oc3ccccc3c2n1	inconclusive: 5.17 µM [inhibitor, single point]
Cc1c(Br)c([N+](=O)[O-])nn1CC(=O)N1CCc2ccccc2C1	inactive
O=C(NCC1CCCO1)c1cc(S(=O)(=O)Nc2ccc(Br)cc2)ccc1Cl (centres undefined)	inconclusive: 23.1 µM [inhibitor, partial curve]
CCc1noc(C)c1C(=O)N1CCN(S(=O)(=O)c2ccccc2C(F)(F)F)CC1	inactive
O=C1CCN(S(=O)(=O)c2ccccc2)CCN1CCOCc1ccc(C(F)(F)F)cc1	inconclusive: 23.1 µM [inhibitor, partial curve, poor fit]
O=C(/C=C/Nc1ccccc1Oc1ccccc1)c1ccco1	inactive
Cc1cc(SCC(=O)c2cccs2)nc2ccccc12	inconclusive: 23.1 µM [activator, single point]

A draw from above in order of heavy-atom count, ascending.
Structure (SMILES)	Potency
Cc1cc(C(=O)CSc2ccc(Cl)cc2)cc(C)c1OC(=S)N(C)C	inconclusive: 2.59 µM [activator, full curve]
CCc1noc(C)c1C(=O)N1CCN(S(=O)(=O)c2ccccc2C(F)(F)F)CC1	inactive
O=C(N/N=C/c1ccccc1OC(F)F)c1cc(-c2ccncc2)nc2ccccc12	inconclusive: 6.51 µM [inhibitor, partial curve]

Additional compounds follow:

Structure (SMILES)	Potency
Cc1ccccc1-n1c(C)cc(/C=N/NC(=O)c2ccncc2)c1C	inconclusive: 25.9 µM [activator, single point]
O=C1c2ccccc2C(=O)N1CCCCN(C(=O)c1ccco1)c1ccc(Cl)cc1	inconclusive: 18.4 µM [inhibitor, single point]
Cc1ccc(NC(=O)Cn2nnc(C(=O)NCc3cccs3)c2N)cc1F	inconclusive: 23.1 µM [activator, single point]
O=C(N/N=C/C(Br)=C\c1ccccc1)c1n[nH]c2c1CCC2	inconclusive: 4.11 µM [activator, partial curve]
CCOc1ccc(C(=O)NC(C)(C)CC)cc1	inconclusive: 16.4 µM [activator, partial curve, poor fit]
COc1ccc(-c2nc(N)n(C(=O)c3ccccc3)n2)cc1	inconclusive: 29.1 µM [activator, single point]
Cc1ccc(Cn2c(CCCO)nc3ccccc32)cc1	inactive
O=C1NCC(O)=C1C=Nc1ccccc1O	inconclusive: 23.1 µM [inhibitor, single point]
COc1ccc(C)cc1NC(=O)c1sc2ncnc(N3CCN(c4ccccn4)CC3)c2c1C	active: 6.51 µM
CCN(C(=O)c1cc2c(=O)[nH]c3ccc(C)cc3c2s1)c1ccc(OC)cc1	inconclusive: 2.31 µM [inhibitor, full curve]
c1ccc2c(-c3csc(-c4ccncc4)n3)c[nH]c2c1	inconclusive: 14.6 µM [activator, partial curve]
COc1ccc2[nH]c(N=Nc3ccccc3C)c(O)c2c1	inconclusive: 16.4 µM [activator, partial curve]
CS(=O)(=O)Nc1ccc(C(=O)Nc2ccc3c(c2)OCO3)cc1	inconclusive: 20.6 µM [activator, partial curve]
CC(=O)Nc1ccc(C2=CC(=O)CC(C)(C)C2)cc1	inconclusive: 25.9 µM [activator, partial curve]
COc1cc(NC(=S)N2CCN(Cc3ccccc3)CC2)cc(OC)c1	inactive
CCOC(=O)c1sc(=NC(=O)c2ccc(C)cc2)n(C)c1C	inconclusive: 11.6 µM [activator, partial curve]
CC(C)N(C(=O)Cn1cc(S(=O)(=O)CC(=O)Nc2ccccc2)c2ccccc21)C(C)C	inactive
C=CCn1c(SCC(N)=O)nnc1-c1ccccc1O	inactive
Cc1ccccc1C(=O)Nc1cc(C(F)(F)F)ccc1-n1cncn1	inactive
COc1ccc(N2CCN(CCCNC(=O)C3CCC(CNc4nc(=S)[nH]c5ccccc45)CC3)CC2)cc1 (centres undefined)	inconclusive: 16.4 µM [inhibitor, partial curve]
COc1ccc(CCNC(=O)CSc2ncnc3c2oc2ccccc23)cc1OC	inconclusive: 3.16 µM [activator, single point]
CCOC(=O)CC(=O)c1[nH]c(C)c(C(=O)OCC)c1C	inconclusive: 16.4 µM [activator, partial curve]
O=C(CCN1CCOCC1)Nc1ccc(Cl)cc1	inactive

Structure (SMILES)	Potency
CCc1cc2c(=O)c(-c3ccc4c(c3)OCCO4)coc2cc1OS(C)(=O)=O	inconclusive: 2.31 µM [activator, partial curve]
O=C(NCCCN1CCOCC1)c1ccc2ccccc2c1	inconclusive: 23.1 µM [activator, single point]
COc1ccc(NC(=O)c2ccccc2NC(=O)NC2CCCCC2)cc1	inconclusive: 14.1 µM [activator, single point]
CN(C)S(=O)(=O)c1ccc(Cl)c(C(=O)Nc2ccc(S(=O)(=O)N3CCOCC3)cc2)c1	active: 16.4 µM
CCCCN(CCCNC(=O)c1c(C)cc(=O)oc1C)c1ccccc1	inconclusive: 0.731 µM [activator, partial curve, poor fit]
CCOC(=O)c1ccc(-c2ccc(CO)o2)cc1	inconclusive: 16.4 µM [activator, partial curve]
CSc1nc(C(C)C)ccc1CNC(=O)CC(C)c1ccccc1 (centres undefined)	inconclusive: 25.9 µM [inhibitor, partial curve, poor fit]
CC(=O)N1CCN(C(=O)CSc2ncnc3sc(C)c(C)c23)CC1	inactive
Cc1ccnc2c1ccc1cccnc12	inconclusive: 8.2 µM [inhibitor, partial curve, poor fit]
BrC(=C\c1ccccc1)/C=N/n1cnnc1	inconclusive: 29.1 µM [inhibitor, single point]
Cc1cc(NC(=O)c2ccc(Br)o2)ccc1NC(=O)c1ccco1	inconclusive: 20.6 µM [activator, partial curve]
COc1cccc(/C=C/C(=O)OCC(=O)Nc2cc(C(F)(F)F)ccc2Cl)c1	inactive
O=C(COc1ccccc1Cl)Nc1ccc2c(c1)OCCO2	inconclusive: 5.17 µM [activator, partial curve]
Cc1cccc2nc(-c3ccco3)c(Nc3ccccc3)n12	inconclusive: 20.6 µM [inhibitor, single point]
C=CCn1c(=NC(=O)C2COc3ccccc3O2)sc2cccc(OC)c21 (centres undefined)	inactive
Cc1cc(C)nc(SCc2ccc(C(=O)NNC(=O)Nc3cccc(Cl)c3)cc2)n1	inactive
CCn1cc(CNC(=O)c2ccc(OC3CCN(Cc4ccccn4)CC3)cc2)cn1	inactive
CCCCSc1ccc2nc(-c3ccc(C#N)cc3)cn2c1	inconclusive: 20.6 µM [activator, partial curve]
COc1ccc(N=CC=C2OC(C)(C)C(C)(C)O2)cc1OC	inconclusive: 29.1 µM [inhibitor, single point]
CCCCN(C(=O)c1ccc(S(=O)(=O)N2CCCCC2)cc1)C1CCS(=O)(=O)C1 (centres undefined)	inconclusive: 25.9 µM [activator, single point]
OCCN1CCN(C(=S)c2ccc(-c3ccccc3)cc2)CC1	inconclusive: 3.66 µM [inhibitor, full curve]
COc1cccc2c1C(=O)c1ccc3ccccc3c1C2=O	inconclusive: 9.2 µM [activator, partial curve]
O=C(COC(=O)C1=NN(c2ccccc2)C(=O)CC1)Nc1nc(-c2ccc(F)cc2)cs1	inconclusive: 20.6 µM [activator, partial curve, poor fit]
